Construct, isoform or probe ends are uncertain for at least one entry. Weaker means in comparison with the reference protein, sequence or condition of that experiment. Protein sequences can lack the tags named with them.
The sequences below were run against T1, His6-MM_0565 (CARF-wHTH protein) (Methanosarcina mazei Gö1) (UniProt Q8PZC9) (assay: MST). Details: MST: 25 nM labelled protein in His-tag buffer (250 mM NaH2PO4, 1.5 M NaCl, pH 8) + 1 mg/mL BSA, 0.05% Tween20, DNA from annealing buffer; recombinant protein; protein details: N-terminal His6 (pET28a).
T1 sequence (looked up, limits assumed): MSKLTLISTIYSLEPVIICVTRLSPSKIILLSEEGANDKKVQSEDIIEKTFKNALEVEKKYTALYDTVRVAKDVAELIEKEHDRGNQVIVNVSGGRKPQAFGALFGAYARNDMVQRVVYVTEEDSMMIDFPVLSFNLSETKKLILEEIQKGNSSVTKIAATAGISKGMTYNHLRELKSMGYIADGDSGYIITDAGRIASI

Binding result, binds more weakly:
AGCAAATAGAACCAAACATCAACTAAATCCCTATATCGTAAAACATTTAACCAAACCCTA (double strand) [MM_0565 promoter version 4]
AGCAAATAGAACCAAACATCAAACATTTAACCAAACCCTACAATACATGACATCTAATGT (double strand) [MM_0565 promoter version 2]
AGCAAATAGAACCAAACATCAACTAAATCCCTATATCGTACAATACATGACATCTAATGT (double strand) [MM_0565 promoter version 3]

— PMC7465815, “The CARF Protein MM_0565 Affects Transcription of the Casposon-Encoded cas1-solo Gene in Methanosarcina mazei Gö1” (Biomolecules, 2020)
